{
  "sequences": {"note": "Protein sequences, listed by entry. Tags and fused reporters are not part of them.", "UniProt P27695, whole entry, looked up": "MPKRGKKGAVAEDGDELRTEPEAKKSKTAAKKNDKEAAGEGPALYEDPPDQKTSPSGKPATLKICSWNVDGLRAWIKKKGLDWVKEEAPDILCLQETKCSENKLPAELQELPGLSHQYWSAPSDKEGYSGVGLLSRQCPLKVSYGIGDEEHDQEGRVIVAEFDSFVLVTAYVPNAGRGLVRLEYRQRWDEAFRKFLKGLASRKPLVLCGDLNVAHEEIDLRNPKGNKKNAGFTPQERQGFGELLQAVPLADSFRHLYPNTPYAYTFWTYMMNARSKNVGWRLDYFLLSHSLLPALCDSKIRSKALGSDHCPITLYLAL"},
  "source": "PubChem BioAssay AID2517",
  "about": "(National Center for Advancing Translational Sciences (NCATS), 2010)",
  "note": "Hit rate of the full screen: of about 350,000 compounds, about 1,200 (0.34%) were called active. Inconclusive means that the source gave no clear call. Such entries were picked first, then a sample of the others. Calls follow the shape of the dose curve; as a rule, active = well fitted inhibition curve with a large enough effect; inconclusive = small, poorly fitted or top-dose-only effect; inactive = no such curve, though single readings can be large or run the other way. A potency beside an inconclusive call is a rough fit, not a confirmed value. Non-standard residues stand in square brackets, D forms with d. Residues, ends and D or L forms follow the SMILES beside them. pGlu = O=C1CC[C@@H](C(=O)O)N1; Thz = O=C(O)[C@@H]1CSCN1",
  "data": [
    {"molecular_target": "DNA repair nuclease/redox regulator APEX1 (Homo sapiens) (UniProt P27695)", "experiment": "qHTS Assay for Inhibitors of the Human Apurinic/apyrimidinic Endonuclease 1 (APE1); also: nearly all actives have a fitted effect of over 55% in size; also: potency is read from the fitted curve at half-maximal effect;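 as to activity change, negative = inhibition: plate controls were vehicle for no effect and reference inhibitor for full effect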", "conditions": "recombinant APE1, TAMRA/BHQ-2 abasic DNA cleavage fluorescence; activity change, negative = inhibition: at 65.8 µM (top of the series)", "how_it_was_run": "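Substrate: short duplex with […] THF abasic site, 5'-TAMRA and 3'-BHQ-2, 50 nM final. APE1 at 0.75 nM, preincubated 15 min RT with compound. Fluorescence increase from first to third read measured activity.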", "values": [
      {"smiles": "COc1ccccc1NS(=O)(=O)c1cc(C)ccc1C", "Potency": "inconclusive: 2.51 µM [inhibitor, full curve, poor fit]"},
      {"smiles": "CC(C)N1CCN(Cc2ccc(Sc3nncn3C)o2)CC1CCO", "note": "(centres undefined)", "Potency": "inconclusive: 3.98 µM [inhibitor, single point]"},
      {"smiles": "COC(=O)Cc1[nH]nc2c1C1(C(=O)N(Cc3ccc(Cl)cc3)c3ccccc31)C(C#N)=C(N)O2", "note": "(centres undefined)", "Potency": "inconclusive: 44.7 µM [inhibitor, single point]"},
      {"smiles": "COc1ccc(N2CCN(CCCNC(=O)C3CCCN(S(=O)(=O)c4c(C)n[nH]c4C)C3)CC2)cc1", "note": "(centres undefined)", "Potency": "inconclusive: 15.8 µM [inhibitor, partial curve, poor fit]"},
      {"smiles": "O=C(O)c1cc(-c2ccco2)nc2cc3ccccc3cc12", "Potency": "inconclusive: 39.8 µM [inhibitor, single point]"},
      {"smiles": "COc1cc(/C=C/C(=O)OCC(=O)Nc2cc(C)c(C)cc2[N+](=O)[O-])ccc1O", "Potency": "inconclusive: 39.8 µM [inhibitor, single point]"},
      {"smiles": "O=C(O)C(c1ccccc1)N1C(=O)/C(=C\\c2ccc(-c3ccc(Br)cc3)o2)SC1=S", "note": "(centres undefined)", "Potency": "inconclusive: 26.7 µM [inhibitor, single point]"},
      {"smiles": "COc1ccc(CN2CCN(Cc3nc4ccccc4s3)CC2CCO)c(C)c1C", "note": "(centres undefined)", "Potency": "inconclusive: 44.7 µM [inhibitor, single point]"},
      {"smiles": "Cc1ccnc2nc(C(=O)NC3CCCc4ccccc43)nn12", "note": "(centres undefined)", "Potency": "inconclusive: 35.5 µM [inhibitor, partial curve]"},
      {"smiles": "O=C(NCc1ccco1)c1cccs1", "activity change, negative = inhibition": "inactive: -4.16%"},
      {"smiles": "Oc1c(Cl)cc(Cl)cc1CNc1ccc(Br)cn1", "Potency": "inconclusive: 44.7 µM [inhibitor, single point]"},
      {"smiles": "COc1ccc(Nc2ncc(C(=O)N3CCN(Cc4ccccc4)CC3)c3ccccc23)cc1", "Potency": "inconclusive: 44.7 µM [inhibitor, single point]"},
      {"smiles": "C#CCOCCOCCOCCNc1nc(N2CCN(C(=O)CCCCCCCCCCNC(=O)[C@H](CO)n3cc(CCCSC)nn3)CC2)nc(N2CCN(C(=O)CCCCCCCCCCNC(=O)[C@H](CCCN=C(N)N)n3cc(C[C@@H](C)CC)nn3)CC2)n1", "Potency": "inconclusive: 26.7 µM [inhibitor, single point]"},
      {"smiles": "CC(=O)Nc1ccc(C(=O)N/N=C/c2ccccc2OCc2ccccc2)cc1", "activity change, negative = inhibition": "inactive: -2.29%"},
      {"smiles": "O=C(O)c1ccccc1C(=O)NC1Cc2ccccc2C1", "Potency": "inconclusive: 7.94 µM [inhibitor, single point]"},
      {"smiles": "Cn1c(=O)oc2cc(S(=O)(=O)NCc3ccc(C(=O)O)cc3)ccc21", "Potency": "inconclusive: 22.4 µM [inhibitor, single point]"},
      {"smiles": "CCc1ccc(NC(=O)COc2ccc(/C=C(/C#N)c3nc4ccccc4[nH]3)cc2OC)cc1", "activity change, negative = inhibition": "inactive: 0.0992%"},
      {"smiles": "Cc1c(Nc2nc3ccccc3nc2NS(=O)(=O)c2ccccc2)c(=O)n(-c2ccccc2)n1C", "Potency": "inconclusive: 0.0032 µM [inhibitor, full curve, poor fit]"},
      {"smiles": "COc1ccc2c(c1)-c1c(ssc1=S)C(C)(C)N2S(=O)(=O)c1ccc(C)cc1", "activity change, negative = inhibition": "inactive: -0.77%"},
      {"smiles": "CCOc1ccc2nc(SC(CC)C(=O)Nc3cc(C)on3)sc2c1", "note": "(centres undefined)", "Potency": "inconclusive: 44.7 µM [inhibitor, single point]"},
      {"smiles": "Cc1onc(-c2c(Cl)cccc2Cl)c1-c1nnc(-c2ccc(Cl)cc2)o1", "Potency": "inconclusive: 3.16 µM [inhibitor, single point]"},
      {"smiles": "CC(=O)Nc1ccn(C2OC(C(COC(C)=O)NC(=O)C(C)NC(=O)OC(C)(C)C)C(OC(C)=O)C2OC(C)=O)c(=O)n1", "note": "(centres undefined)", "activity change, negative = inhibition": "inactive: 15.1%"},
      {"smiles": "Oc1ccc(/C=N/Nc2cc(N3CCCC3)nc(N3CCCC3)n2)cc1O", "Potency": "inconclusive: 1.41 µM [inhibitor, full curve]"},
      {"smiles": "COc1ccc(C(CCN2CCOCC2)c2c(O)cc(OC)cc2OC)cc1", "note": "(centres undefined)", "Potency": "inconclusive: 0.112 µM [inhibitor, full curve]"},
      {"smiles": "Cc1ccc(S(=O)(=O)N[C@H]2COC(=O)[C@@H](C)COC(=O)C/C=C\\[C@H]2C)cc1", "activity change, negative = inhibition": "inactive: 16.8% [at 12.4 µM]"},
      {"smiles": "CCCCN1C(=O)Cc2c1nc(N)c1c(N)nc(N(CCC)CCC)c(C#N)c21", "Potency": "inconclusive: 39.8 µM [inhibitor, partial curve]"},
      {"smiles": "N#Cc1nc(-c2ccco2)oc1N1CCN(Cc2ccccc2)CC1", "Potency": "inconclusive: 44.7 µM [inhibitor, single point]"},
      {"smiles": "O=S(=O)(Nc1nc(SCc2ccc(Cl)cc2)n[nH]1)c1ccccc1", "Potency": "inconclusive: 7.94 µM [inhibitor, single point]"},
      {"smiles": "O=C(Nc1cc(C(F)(F)F)cc(C(F)(F)F)c1)Nc1cnn(-c2ccc([N+](=O)[O-])cc2)c1C(F)(F)F", "activity change, negative = inhibition": "inactive: -0.484%"},
      {"smiles": "O=C(O)CSc1nnc(Cc2ccccc2)n1-c1ccccc1", "activity change, negative = inhibition": "inactive: -0.872%"},
      {"smiles": "CC(C)=Nc1ccccc1C1COC(=O)C1=N", "note": "(centres undefined)", "Potency": "inconclusive: 0.126 µM [inhibitor, full curve, poor fit]"},
      {"smiles": "COc1ccccc1-c1nc(C#N)c(N2CCN(C(c3ccccc3)c3ccccc3)CC2)o1", "Potency": "inconclusive: 2 µM [inhibitor, partial curve]"},
      {"smiles": "COc1ccc(Cn2nnnc2C(c2cc3cc(C)ccc3[nH]c2=O)N2CCOCC2)cc1", "note": "(centres undefined)", "Potency": "inconclusive: 5.01 µM [inhibitor, partial curve]"},
      {"smiles": "C#CCSc1nsc(SCC#C)c1C#N", "Potency": "inconclusive: 44.7 µM [inhibitor, single point]"},
      {"smiles": "O=C1SC(SCc2ccccc2)=N/C1=C\\c1ccco1", "Potency": "inconclusive: 22.4 µM [inhibitor, partial curve]"},
      {"smiles": "CC(C)=CCC/C(C)=C/C=C/C1=CC2(C)CC1(C)C(/C=C(\\C)CCC=C(C)C)CC2=O", "note": "(centres undefined)", "Potency": "inconclusive: 5.01 µM [inhibitor, single point]"},
      {"smiles": "O=C(O)c1cccc(-c2ccc(/C=c3/sc4nc5ccccc5n4c3=O)o2)c1", "Potency": "active: 10 µM"},
      {"smiles": "O=C(Nc1nnc(SCc2ccc(F)cc2)s1)C1Cc2ccccc2CN1C(=O)c1ccco1", "note": "(centres undefined)", "activity change, negative = inhibition": "inactive: -14.2%"},
      {"smiles": "CCOc1ccc(-n2cc(C(=O)Nc3cccc(OC)c3)c3cc(OC)c(OC)cc3c2=O)cc1", "Potency": "inconclusive: 1000 µM [inhibitor, partial curve, poor fit]"},
      {"smiles": "Cc1ccc2nc3c(c(C(=O)O)c2c1)CCC3", "Potency": "inconclusive: 44.7 µM [inhibitor, single point]"},
      {"smiles": "Cc1c(OCC(=O)NCC(O)c2ccccc2)ccc2c3c(c(=O)oc12)CCC3", "note": "(centres undefined)", "activity change, negative = inhibition": "inactive: 21.2%"},
      {"smiles": "Nc1cc(N)cc(C(=O)OCC(=O)Nc2cc(S(=O)(=O)N3CCCCC3)ccc2Cl)c1", "Potency": "inconclusive: 44.7 µM [inhibitor, single point]"},
      {"smiles": "COc1ccc(NC(=O)CCCN2C(=O)/C(=C\\c3ccco3)SC2=S)cc1", "Potency": "inconclusive: 12.6 µM [inhibitor, partial curve, poor fit]"},
      {"smiles": "CC1=NN(c2ccc(S(=O)(=O)O)cc2C)C(=O)C1", "Potency": "inconclusive: 31.6 µM [inhibitor, single point]"},
      {"smiles": "O=C(Cn1cnc2scc(-c3cccc([N+](=O)[O-])c3)c2c1=O)NCc1ccco1", "Potency": "inconclusive: 31.6 µM [inhibitor, single point]"},
      {"smiles": "CCCCC(C)/C=C(C)/C=C(\\C)C(=O)NC1=CC(O)(/C=C/C=C/C=C/C(=O)NC2=C(O)CCC2=O)C2OC2C1=O", "note": "(centres undefined)", "Potency": "inconclusive: 22.4 µM [inhibitor, single point]"},
      {"smiles": "CCCCCCCC1=CC2=CC(=O)C(C)(OC(C)=O)C(=O)C2=CN1CCc1ccccc1", "note": "(centres undefined)", "Potency": "inconclusive: 5.62 µM [inhibitor, single point]"},
      {"smiles": "O=C(Oc1ccc(-c2csnn2)cc1)c1cccs1", "Potency": "inconclusive: 3.98 µM [inhibitor, single point]"},
      {"smiles": "COC(=O)c1cccc(NC(=O)CSc2nnc(COc3ccc(C#N)cc3)n2-c2ccccc2)c1", "Potency": "inconclusive: 28.2 µM [inhibitor, single point]"},
      {"smiles": "Brc1ccc(-c2csc(N/N=C/c3cccnc3)n2)cc1", "Potency": "inconclusive: 0.01 µM [inhibitor, full curve, poor fit]"},
      {"smiles": "O=C(NCc1ccco1)c1ccc(-c2csnn2)cc1", "activity change, negative = inhibition": "inactive: 9.9%"},
      {"smiles": "O=C(O)/C=C/C(O)c1ccc(Cl)cc1", "note": "(centres undefined)", "Potency": "inconclusive: 12.6 µM [inhibitor, single point]"},
      {"smiles": "COc1ccc(S(=O)(=O)Nc2ccccc2C(=O)NCc2ccco2)cc1", "Potency": "inconclusive: 0.316 µM [inhibitor, full curve]"},
      {"smiles": "COc1ccc(/C(=N/OC(C)=O)c2nccc3cc(OC)c(OC)cc23)cc1OC", "activity change, negative = inhibition": "inactive: 2.16%"},
      {"smiles": "Cc1ccsc1C(=O)Nc1ccc(O)c(-c2nc3ccccc3s2)c1", "Potency": "inconclusive: 17.8 µM [inhibitor, partial curve]"},
      {"smiles": "O=C1CC[C@@H](C(=O)N2CSC[C@H]2C(=O)O)N1", "note": "([pGlu]-[Thz]-OH)", "Potency": "inconclusive: 35.5 µM [inhibitor, single point]"},
      {"smiles": "Oc1c(Cl)cc(Cl)c2cccnc12", "Potency": "inactive"},
      {"smiles": "COc1cccc(CC(=O)Nc2ccc3nc(C)sc3c2)c1", "Potency": "inconclusive: 15.8 µM [inhibitor, partial curve]"},
      {"smiles": "Cc1cccc(-n2nc(C)c3c2NC2=C(C(=O)CCC2)C3c2ccccn2)c1", "note": "(centres undefined)", "Potency": "inconclusive: 35.5 µM [inhibitor, single point]"},
      {"smiles": "Cc1cccc(/C=C/C(=O)c2cc(Br)ccc(=O)c2O)c1", "activity change, negative = inhibition": "inactive: -12.4%"},
      {"smiles": "NC(=O)c1c(NC(=O)CCCC(=O)O)sc2c1CCCCCC2", "Potency": "inconclusive: 28.2 µM [inhibitor, single point]"},
      {"smiles": "COc1ccc(CCNCC(=O)N2C(C)CCCC2C)cc1OC", "note": "(centres undefined)", "activity change, negative = inhibition": "inactive: -1.46%"},
      {"smiles": "C#CCNC(=O)C1=C[C@H](c2ccc(C(F)(F)F)cc2)[C@@H](CCCO)[C@H](OCC)O1", "Potency": "inconclusive: 28.2 µM [inhibitor, partial curve]"},
      {"smiles": "COc1ccc(N2C(=O)C3CCCN3C2c2cc(OC)c(OC)cc2OC)cc1", "note": "(centres undefined)", "Potency": "inconclusive: 44.7 µM [inhibitor, single point]"}
    ]}
  ]
}
